Measurements taken from PubChem BioAssay AID504648 (National Center for Advancing Translational Sciences (NCATS), 2011).
Among all 390,000 compounds or so, about 610 (0.16%) were called active. The inconclusive results got no clear call from the source; some entries with a clear call stand among them for comparison. Calls come from the whole dose curve; as a rule, active = well fitted inhibition curve with a large enough effect; inconclusive = small, poorly fitted or top-dose-only effect, or effect the other way, or another doubt; inactive = no such curve, though single readings can be large or run the other way. A potency beside an inconclusive call is a rough fit, not a confirmed value.

Assay: Nrf2 qHTS screen for inhibitors: counterscreen for cytotoxicity
Settings: A549 ARE-Fluc cells, CellTiter-Fluor viability, 18-24 h; activity change, negative = cytotoxicity: at 46 µM (top of the series)
Summary of the method: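 A549 ARE-Fluc cells in 5% FBS OPTI-MEM, 5000 cells/well, rested 2 h then exposed to compounds in concentration-response for 18-24 h at 37 °C. Viability by CellTiter-Fluor fluorescence (Ex 405/Em 525) after 30 min; luciferase luminescence (BugLite, 15 min, RT) read afterwards.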
% is set by controls: 0 for no effect and ±100 for the full control effect; potency is the fitted concentration of half-maximal effect.

| SMILES | Potency | activity change, negative = cytotoxicity |
| --- | --- | --- |
| CN(Cc1ccco1)C(=O)Cn1ncc2c([nH]c3ccccc32)c1=O | inconclusive: 5.8 µM [activator, partial curve, poor fit] | – |
| CCCCCc1cc(=O)oc2c(C(CCN3CCCC(C)C3)c3ccc(N(C)C)cc3)c(OC)cc(OC)c12 (stereo not given) | inconclusive: 16.4 µM [falling, partial curve, poor fit] | – |
| COc1ccc(C(=O)Nc2ccc(C)cc2C(=O)c2ccccc2)cc1 | inconclusive: 2.31 µM [activator, partial curve, poor fit] | – |
| CC(C)N1C(=O)S/C(=C/c2ccc(Sc3nc4ccccc4[nH]3)o2)C1=O | inconclusive: 16.4 µM [falling, partial curve, poor fit] | – |
| Cc1ccc(CNc2nc(-c3cccnc3)nc3ccccc23)cc1 | inconclusive: 13 µM [falling, partial curve] | – |
| COc1ccccc1C=NN=C(NN=Cc1ccccc1OC)NN=Cc1ccccc1OC | inconclusive: 29.1 µM [falling, single point] | – |
| Cc1ccc(NC(=O)c2sc3nc4c(c(-c5ccco5)c3c2N)CCC4)cc1 | inactive | – |
| O=[N+]([O-])c1ccc(C=NNC(=S)NN=Cc2ccc([N+](=O)[O-])cc2)cc1 | inconclusive: 32.6 µM [falling, partial curve, poor fit] | – |
| COc1nc(-c2ccccc2)ccc1-c1noc(-c2cccnc2)n1 | inactive | – |
| CCCN(CCC)S(=O)(=O)c1ccc(C(=O)OCCN2C(=O)c3cccc4c(N5CCOCC5)ccc(c34)C2=O)cc1 | inconclusive: 23.1 µM [activator, partial curve, poor fit] | – |
| COc1cc(NC(=O)c2sc3nc4n(c(=O)c3c2C)CCCCC4)cc(OC)c1OC | inactive | – |
| C/C(=N\NC(=O)c1nnn(-c2nonc2N)c1CN(C)c1ccccc1)c1ccccn1 | inconclusive: 11.6 µM [falling, partial curve, poor fit] | – |
| CC(=O)C1=NOC(CNC(=O)c2c(-c3ccccc3Cl)noc2C)C1 (stereo not given) | inconclusive: 0.92 µM [activator, partial curve, poor fit] | – |
| O=C(Nc1ccccc1C(F)(F)F)NC1(C(=O)N2CCOCC2)CCCCC1 | inconclusive: 20.6 µM [falling, single point] | – |
| O=S(=O)(NC1CC1)c1ccc(S(=O)(=O)N2CCCc3ccccc32)cc1 | inactive | – |
| Cc1[nH][nH]c(=O)c1N=Nc1ccc(F)cc1 | inconclusive: 16.4 µM [falling, partial curve, poor fit] | – |
| Cc1cc(C)cc(NC(=S)NCc2cccs2)c1 | inconclusive: 29.1 µM [falling, single point] | – |
| CCN(C[C@H]1N[C@@](Cc2ccccc2)(C(=O)OC)[C@H]2C(=O)N(Cc3ccccc3)C(=O)[C@@H]12)C(=O)Nc1ccc(C(F)(F)F)cc1 | inconclusive: 23.1 µM [falling, partial curve, poor fit] | – |
| COc1ccc(N/N=C(\C=N\O)C(=O)c2ccc(OC)cc2)cc1 | inconclusive: 13 µM [falling, partial curve, poor fit] | – |
| CCN(CC)c1ccc2cc(-c3nc(-c4ccc(OC)cc4)cs3)c(=O)oc2c1 | inconclusive: 9.2 µM [activator, partial curve] | – |

| SMILES | Potency | activity change, negative = cytotoxicity |
| --- | --- | --- |
| CCOC(=O)c1c(C)[nH]c(C)c1C(=O)CSc1nnc(-c2ccc(OC(F)F)cc2)o1 | inconclusive: 29.1 µM [falling, single point] | – |
| CCn1c(=O)n(CCc2ccccc2)c(=O)c2c3c(sc21)CCCC3 | inconclusive: 23.1 µM [activator, single point] | – |
| COc1ccccc1C(C[N+](=O)[O-])c1c(N)n(C)c(=O)n(C)c1=O (stereo not given) | inconclusive: 20.6 µM [falling, single point] | – |
| CCc1ccc(C2C(C#N)=C(N)C(C#N)(C#N)C3=CCC(C(C)(C)C)CC32)cc1 (stereo not given) | inconclusive: 32.6 µM [falling, partial curve, poor fit] | – |
| CC1=NN(C(N)=S)C(=O)C1N=Nc1c(Cl)cc([N+](=O)[O-])cc1Cl (stereo not given) | inconclusive: 20.6 µM [falling, partial curve] | – |
| COc1cc(OC)c(OC)cc1/C=N/Nc1ccc(Cl)nn1 | inactive | – |
| CSCCC(NC(=O)COc1ccccc1)C(=O)N(C)Cc1ccc(Cl)cc1Cl (stereo not given) | inactive | – |
| CCOC(=O)C1(CCOc2ccccc2)CCN(Cc2cc(OC)ccc2OC)CC1 | inactive | – |
| CCCCC(=O)Nc1c(C(=O)N2CCN(c3ccccc3)CC2)oc2ccccc12 | inconclusive: 32.6 µM [falling, partial curve, poor fit] | – |
| Cc1ccc2oc(=O)n(CCOc3ccccc3C)c2c1 | inconclusive: 18.4 µM [activator, partial curve, poor fit] | – |
| COC(=O)c1ccc(-c2sc3nc(N4CCOCC4)c4c(c3c2N)CCCC4)o1 | inconclusive: 2.06 µM [activator, partial curve, poor fit] | – |
| Cc1ccc(-n2c(=O)c3oc4ccccc4c3n(CC(=O)Nc3ccc(F)c(Cl)c3)c2=O)cc1C | inactive | – |
| Cc1cc(C)cc(OCc2cc(=O)n3c4c(sc3n2)CCCC4)c1 | inactive | – |
| Cc1ccc(-c2nc(CS(=O)CC(=O)N3CCN(c4ccc(F)cc4)CC3)c(C)o2)cc1 (stereo not given) | inconclusive: 32.6 µM [falling, single point] | – |
| CCCCN(C)C(=O)c1ccc2c(c1)N(Cc1ccc(F)cc1)C(=O)c1ccccc1S2(=O)=O | inconclusive: 16.4 µM [falling, single point] | – |
| COc1ccc(N=c2cc(-c3ccc(OC)cc3)oc3ccccc23)cc1 | inconclusive: 16.4 µM [falling, single point] | – |
| OC(CNCCc1ccccc1)COc1ccc(OCC(O)CNCCc2ccccc2)cc1 (stereo not given) | inactive | – |
| CC(C)NC(=O)C1CCN(C(=O)c2cc3sccc3n2Cc2ccc(F)cc2)CC1 | inconclusive: 10.3 µM [falling, partial curve] | – |
| CCc1cccc(C)c1NC(=O)c1ccc2c(c1)CCN2S(=O)(=O)CC | – | inconclusive: -62.8% [activator] |
| COC(=O)N[C@H](c1ccccc1)[C@@]1(C)C[C@@H]1[C@@H](C)C(=O)Nc1ccc2ccccc2c1 | inconclusive: 20.6 µM [falling, partial curve, poor fit] | – |

A different layout for part of the listing above.
SMILES,Potency,"activity change, negative = cytotoxicity"
Cc1ccc(NC(=O)c2sc3nc4c(c(-c5ccco5)c3c2N)CCC4)cc1,inactive,–
O=[N+]([O-])c1ccc(C=NNC(=S)NN=Cc2ccc([N+](=O)[O-])cc2)cc1,"inconclusive: 32.6 µM [falling, partial curve, poor fit]",–
